Data source: PubChem BioAssay AID1224826 (NIAID, 2016)
Purpose: 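Knock-downs that raise or lower Tnf reporter signal after endotoxin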 (primary screen). Cell system: RAW264.7 G9 macrophages from mouse bearing reporters for p65 (GFP) and the Tnf promoter (mCherry). Reagents: siRNA pool against mouse genes, 100 nM. Duration: 16 h of LPS stimulation, after 2 days of siRNA transfection. Treatment: bacterial lipopolysaccharide (Salmonella minnesota R595), 10 ng/ml. Measurement: 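Imaged Tnf reporter mCherry in nuclei, minus background, normalised per plate to the median and expressed as robust z-scores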. Direction: Tnf reporter robust z-score: higher = stronger Tnf promoter reporter signal after LPS. Call rule: 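a well counts as active at a score of -1.3 or below (Tlr4 knock-down control median) or above 3 (raised signal); controls and wells holding fewer than 50 cells are excluded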. Meaning of the calls: active = Tnf reporter clearly lowered or raised; inactive = no clear change in Tnf reporter.
The deposit covers about 17,000 reagents; this is a part drawn at random. About 1,110 of all reagents (6.6%) count as active. 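Active means lowered or raised reporter signal; replicate intensities are raw and not normalised per plate.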 A reagent listed more than once was tested more than once; the source does not tell the runs apart. Not all columns of the deposit are shown. No sequences are given here.

target | Tnf reporter robust z-score | fewer than 50 cells in well | Call
Snrpd3 (small nuclear ribonucleoprotein D3) | – | fewer than 50 cells per well; well left out of calls | inactive
Trmt10a (tRNA methyltransferase 10A) | – | fewer than 50 cells per well; well left out of calls | inactive
Rpl27a (ribosomal protein L27A) | 0.53 | enough cells in well | inactive
Mrpl43 (mitochondrial ribosomal protein L43) | 0.69 | enough cells in well | inactive
Ano6 (anoctamin 6) | 0.62 | enough cells in well | inactive
Polr2a (polymerase (RNA) II (DNA directed) polypeptide A) | -1.59 | enough cells in well | active
Hmgcl (3-hydroxy-3-methylglutaryl-Coenzyme A lyase) | -0.37 | enough cells in well | inactive
Prokr1 (prokineticin receptor 1) | -0.61 | enough cells in well | inactive
Uqcr10 (ubiquinol-cytochrome c reductase, complex III subunit X) | 1.84 | enough cells in well | inactive
Arhgap39 (Rho GTPase activating protein 39) | -0.76 | enough cells in well | inactive
Ucp2 | -1.38 | enough cells in well | active
Teddm2 (transmembrane epididymal family member 2) | -0.22 | enough cells in well | inactive
Fam114a1 (family with sequence similarity 114, member A1) | -0.06 | enough cells in well | inactive
Olfml3 (olfactomedin-like 3) | 2.44 | enough cells in well | inactive
Oxr1 (oxidation resistance 1) | -0.2 | enough cells in well | inactive
Nek1 (NIMA (never in mitosis gene a)-related expressed kinase 1) | -0.25 | enough cells in well | inactive
Pnpo (pyridoxine 5'-phosphate oxidase) | 0.74 | enough cells in well | inactive
Lncpint (long non-protein coding RNA, Trp53 induced transcript) | – | fewer than 50 cells per well; well left out of calls | inactive
Gsdmd (gasdermin D) | 0.25 | enough cells in well | inactive
Golim4 (golgi integral membrane protein 4) | -0.01 | enough cells in well | inactive
Ssc5d (scavenger receptor cysteine rich family, 5 domains) | 1.1 | enough cells in well | inactive
Thumpd1 (THUMP domain containing 1) | -0.57 | enough cells in well | inactive
N4bp2l1 (NEDD4 binding protein 2-like 1) | -0.75 | enough cells in well | inactive
Ace2 (angiotensin converting enzyme 2) | 0.32 | enough cells in well | inactive
Tiaf2 (TGF-beta1-induced anti-apoptotic factor 2) | 1.65 | enough cells in well | inactive
Slc7a15 | – | fewer than 50 cells per well; well left out of calls | inactive
Grk5 (G protein-coupled receptor kinase 5) | -1.27 | enough cells in well | inactive
Grk5 (G protein-coupled receptor kinase 5) | -1.46 | enough cells in well | active
Mtif2 (mitochondrial translational initiation factor 2) | 0.42 | enough cells in well | inactive
Plekha6 (pleckstrin homology domain containing A6) | -0.93 | enough cells in well | inactive
Ggact (gamma-glutamylamine cyclotransferase) | 0.58 | enough cells in well | inactive
Or4a71 (olfactory receptor family 4 subfamily A member 71) | 0.27 | enough cells in well | inactive
Foxf2 (forkhead box F2) | 0.75 | enough cells in well | inactive
Chkb (choline kinase beta) | -1.47 | enough cells in well | active
Pi4k2a (phosphatidylinositol 4-kinase type 2 alpha) | -0.46 | enough cells in well | inactive
Tmem109 (transmembrane protein 109) | 2.57 | enough cells in well | inactive
Zfp946 (zinc finger protein 946) | -0.11 | enough cells in well | inactive
Chmp1b (charged multivesicular body protein 1B) | – | fewer than 50 cells per well; well left out of calls | inactive
Mamdc2 (MAM domain containing 2) | 1.85 | enough cells in well | inactive
Cc2d1b (coiled-coil and C2 domain containing 1B) | -0.17 | enough cells in well | inactive
Ddx24 (DEAD box helicase 24) | 1.78 | enough cells in well | inactive
Cdca2 (cell division cycle associated 2) | 1.53 | enough cells in well | inactive
Hrh4 (histamine receptor H4) | 0.91 | enough cells in well | inactive
Sgf29 (SAGA complex associated factor 29) | 4.16 | enough cells in well | active
Gak (cyclin G associated kinase) | 0.41 | enough cells in well | inactive
Cask (calcium/calmodulin dependent serine protein kinase) | -1.01 | enough cells in well | inactive
Kctd12 (potassium channel tetramerisation domain containing 12) | -1.29 | enough cells in well | inactive
Gm9735 (predicted gene 9735) | -1.23 | enough cells in well | inactive
Lxn (latexin) | 0.39 | enough cells in well | inactive
Pif1 (PIF1 5'-to-3' DNA helicase) | -0.92 | enough cells in well | inactive
Mknk2 (MAP kinase-interacting serine/threonine kinase 2) | 1.32 | enough cells in well | inactive
Mrm3 (mitochondrial rRNA methyltransferase 3) | – | fewer than 50 cells per well; well left out of calls | inactive
Or5al6 (olfactory receptor family 5 subfamily AL member 6) | 0.91 | enough cells in well | inactive
Ren1 (renin 1 structural) | 0.79 | enough cells in well | inactive
H1f4 (H1.4 linker histone, cluster member) | 0.5 | enough cells in well | inactive
Slc60a2c | 0.8 | enough cells in well | inactive
G3bp1 (G3BP stress granule assembly factor 1) | -0.83 | enough cells in well | inactive
Slc22a2 | -0.79 | enough cells in well | inactive

Looked up above:
Under “fewer than 50 cells in well”, Lncpint (long non-protein coding RNA, Trp53 induced transcript) is entered as fewer than 50 cells per well; well left out of calls
Under “Call”, Foxf2 (forkhead box F2) shows inactive
Gm9735 (predicted gene 9735), Tnf reporter robust z-score → -1.23
Under “Call”, Ddx24 (DEAD box helicase 24) reads inactive
